Publication PMC8797263
No constants are given. Whether binding was seen depends on the method and setting. Binding seen in cells or lysates may run through a third protein. Some results given as binding are weak or reduced against the parent protein; the word gives no strength. Where a sequence is shown, tags or fusion partners need not be part of it.

The chains behind the UniProt entries cited, without tags or fusion partners.
UniProt Q00519: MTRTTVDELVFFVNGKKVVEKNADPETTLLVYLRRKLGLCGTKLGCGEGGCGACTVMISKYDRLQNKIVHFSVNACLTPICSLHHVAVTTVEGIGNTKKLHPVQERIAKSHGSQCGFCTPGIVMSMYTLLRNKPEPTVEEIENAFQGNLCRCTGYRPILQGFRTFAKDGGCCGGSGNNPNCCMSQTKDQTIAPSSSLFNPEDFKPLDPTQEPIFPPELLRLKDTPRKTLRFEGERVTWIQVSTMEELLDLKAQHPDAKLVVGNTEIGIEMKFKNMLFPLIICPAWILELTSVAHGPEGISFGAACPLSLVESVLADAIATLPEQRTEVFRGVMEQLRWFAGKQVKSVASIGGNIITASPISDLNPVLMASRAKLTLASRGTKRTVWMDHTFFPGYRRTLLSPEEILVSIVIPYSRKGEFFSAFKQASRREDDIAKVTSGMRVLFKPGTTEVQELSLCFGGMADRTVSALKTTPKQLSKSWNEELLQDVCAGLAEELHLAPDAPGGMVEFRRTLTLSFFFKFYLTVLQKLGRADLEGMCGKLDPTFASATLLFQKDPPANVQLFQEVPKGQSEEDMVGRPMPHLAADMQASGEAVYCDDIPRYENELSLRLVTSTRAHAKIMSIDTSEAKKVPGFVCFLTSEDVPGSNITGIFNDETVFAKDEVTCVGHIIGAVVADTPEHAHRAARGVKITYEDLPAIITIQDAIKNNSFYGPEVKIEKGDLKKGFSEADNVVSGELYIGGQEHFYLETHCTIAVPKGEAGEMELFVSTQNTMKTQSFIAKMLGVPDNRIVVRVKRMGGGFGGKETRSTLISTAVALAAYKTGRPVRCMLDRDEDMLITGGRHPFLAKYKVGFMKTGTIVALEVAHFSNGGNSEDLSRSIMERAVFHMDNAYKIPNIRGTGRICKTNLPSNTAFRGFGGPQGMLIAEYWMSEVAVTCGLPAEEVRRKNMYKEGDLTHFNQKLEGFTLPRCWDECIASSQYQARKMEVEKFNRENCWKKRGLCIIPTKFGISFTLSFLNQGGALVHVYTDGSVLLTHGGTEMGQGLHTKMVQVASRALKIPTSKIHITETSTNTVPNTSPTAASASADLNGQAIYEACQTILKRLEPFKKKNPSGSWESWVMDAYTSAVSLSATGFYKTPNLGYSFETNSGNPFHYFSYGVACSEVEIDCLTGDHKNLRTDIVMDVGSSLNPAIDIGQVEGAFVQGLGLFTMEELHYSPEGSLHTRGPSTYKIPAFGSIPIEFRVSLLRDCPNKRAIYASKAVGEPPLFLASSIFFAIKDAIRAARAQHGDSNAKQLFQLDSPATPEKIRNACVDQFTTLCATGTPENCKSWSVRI

target: T1, FLAG-OCLN (Occludin) (UniProt Q61146); assay: co-IP; 293T cells co-expressing FLAG-OCLN (or OCLN-ΔN / OCLN-ΔC) and HA-PLIN2/BTN1a1/XOR; lysis in 20 mM HEPES, 150 mM NaCl, 1% NP40; FLAG magnetic beads overnight at 4°C, 4 washes; western blot with anti-HA
T1 sequence: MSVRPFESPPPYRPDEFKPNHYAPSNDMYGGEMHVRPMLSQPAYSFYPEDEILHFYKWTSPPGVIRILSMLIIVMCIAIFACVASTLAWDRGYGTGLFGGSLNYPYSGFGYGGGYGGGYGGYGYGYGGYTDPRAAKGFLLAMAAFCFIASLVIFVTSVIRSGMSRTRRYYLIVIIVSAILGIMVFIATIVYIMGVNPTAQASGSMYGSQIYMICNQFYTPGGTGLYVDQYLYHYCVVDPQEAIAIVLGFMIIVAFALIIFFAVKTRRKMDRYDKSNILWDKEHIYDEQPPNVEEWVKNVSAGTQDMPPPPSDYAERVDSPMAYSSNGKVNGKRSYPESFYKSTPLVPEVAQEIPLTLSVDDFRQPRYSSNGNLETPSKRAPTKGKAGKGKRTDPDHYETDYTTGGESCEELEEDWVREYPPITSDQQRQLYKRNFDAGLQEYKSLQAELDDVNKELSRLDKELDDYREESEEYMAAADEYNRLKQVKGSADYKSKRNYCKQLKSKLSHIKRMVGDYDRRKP

Row | Molecule | binding
1 | HA-XOR (from UniProt Q00519 1-1335) | binds
2 | HA-BTN1a1 (protein, UniProt Q62556 27-524) AAPFDVTAPQEPVLALVGSDAELTCGFSPNASSEYMELLWFRQTRSTAVLLYRDGQEQEGQQMTEYRGRATLATAGLLDGRATLLIRDVRVSDQGEYRCLFKDNDDFEEAAVYLKVAAVGSDPQISMTVQENGEMELECTSSGWYPEPQVQWRTGNREMLPSTSESKKHNEEGLFTVAVSMMIRDSSIKNMSCCIQNILLGQGKEVEISLPAPFVPRLTPWIVAVAIILLALGFLTIGSIFFTWKLYKERSSLRKKEFGSKERLLEELRCKKTVLHEVDVTLDPDTAHPHLFLYEDSKSVRLEDSRQILPDRPERFDSWPCVLGRETFTSGRHYWEVEVGDRTDWAIGVCRENVVKKGFDPMTPDNGFWAVELYGNGYWALTPLRTSLRLAGPPRRVGVFLDYDAGDISFYNMSNGSLIYTFPSISFSGPLRPFFCLWSCGKKPLTICSTANGPEKVTVIANVQDDIPLSPLGEGCTSGDKDTLHSKLIPFSPSQAAP | binds
3 | HA-PLIN2 (Perilipin-2) (protein, UniProt P43883 1-425) MAAAVVDPQQSVVMRVANLPLVSSTYDLVSSAYVSTKDQYPYLRSVCEMAEKGVKTVTSAAMTSALPIIQKLEPQIAVANTYACKGLDRMEERLPILNQPTSEIVASARGAVTGAKDVVTTTMAGAKDSVASTVSGVVDKTKGAVTGSVERTKSVVNGSINTVLGMVQFMNSGVDNAITKSELLVDQYFPLTQEELEMEAKKVEGFDMVQKPSNYERLESLSTKLCSRAYHQALSRVKEAKQKSQETISQLHSTVHLIEFARKNMHSANQKIQGAQDKLYVSWVEWKRSIGYDDTDESHCVEHIESRTLAIARNLTQQLQTTCQTVLVNAQGLPQNIQDQAKHLGVMAGDIYSVFRNAASFKEVSDGVLTSSKGQLQKMKESLDEVMDYFVNNTPLNWLVGPFYPQSTEVNKASLKVQQSEVKAQ | no binding
